From PMC11864691 come the findings set out here.

Amino acid sequences for entries named in this document (tags omitted). Residues count along the entry.
FLAG-DGAT1 (aa 1–156) (O75907, residues 1-156): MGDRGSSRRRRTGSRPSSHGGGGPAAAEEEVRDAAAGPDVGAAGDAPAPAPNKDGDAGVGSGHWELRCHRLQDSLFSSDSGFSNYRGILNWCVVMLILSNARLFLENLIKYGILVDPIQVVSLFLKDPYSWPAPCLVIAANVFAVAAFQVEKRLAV
FLAG-DGAT1 (aa 400–488) (O75907, residues 400-488): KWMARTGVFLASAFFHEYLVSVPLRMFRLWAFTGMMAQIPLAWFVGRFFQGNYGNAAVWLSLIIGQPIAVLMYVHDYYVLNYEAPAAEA

The target in the assay is HA-NS5A (hepatitis C virus NS5A protein) (hepatitis C virus (strain not stated)) (UniProt Q9WMX2). Nature of the assay: co-IP; Huh-7.5 cells cotransfected with pCAG-HA-NS5A and each FLAG-DGAT1 plasmid, harvested 48 h after transfection; lysate precipitated with anti-HA pAb on protein A Sepharose beads; HA-NS5A is the bait; blot with anti-DDDDK mAb.

These are yes or no findings as the source states them, for the method shown. Binding seen in cells or lysates may run through a third protein.

On to “FLAG-DGAT1 (aa 400–488) (from UniProt O75907 400-488) (domain or fragment)”, for which the binding result is on record as “no binding”.
For “FLAG-DGAT1 (aa 1–156) (from UniProt O75907 1-156) (domain or fragment)” the value was “no binding”.
